Publication PMC7072344, “Structure–Activity Relationship of HER2 Receptor Targeting Peptide and Its Derivatives in Targeted Tumor Therapy” (Biomolecules, 2020)
Results are given in words; binding and its absence hold for the method and conditions named. Some entries that bind do so weakly or less than the wild type.

Experiments:
[1] = molecular target: human epidermal growth factor 2 (HER2) receptor (human (endogenous in MDA-MB-453, MDA-MB-435 Br, MCF-7)) (UniProt P04626); assay: flow cytometry on cells; blocking experiment: MDA-MB-453 cells preincubated with unlabeled peptide (65 µM, 30 min) before the corresponding CF-labelled peptide (12.5 or 6.25 µM, 3 h); only the binder purified
[2] = molecular target: human epidermal growth factor 2 (HER2) receptor (human (endogenous in MDA-MB-453, MDA-MB-435 Br, MCF-7)) (UniProt P04626); assay: flow cytometry on cells; reversed combined CF-labelled peptide on cells (Figure 6D,E); cell line, concentration and time are not told for these panels; only the binder purified
[3] = molecular target: human epidermal growth factor 2 (HER2) receptor (human (endogenous in MDA-MB-453, MDA-MB-435 Br, MCF-7)) (UniProt P04626); assay: flow cytometry on cells; MDA-MB-453 cells incubated with CF-labelled peptides, 12.5 µM, 3 h, 37 °C, 5 min trypsinization; read-out percentage of CF+ live cells and mean fluorescence intensity; only the binder purified
[4] = molecular target: human epidermal growth factor 2 (HER2) receptor (human (endogenous in MDA-MB-453, MDA-MB-435 Br, MCF-7)) (UniProt P04626); assay: flow cytometry on cells; MDA-MB-435 Br and MCF-7 cells (medium HER2 expression), with HCC1143 cells (HER2 under the detection limit) as negative control; CF-labelled compounds 12.5 µM, 3 h; only the binder purified

binding [1]	binding [2]	binding [3]	binding [4]	Binder
binds	–	–	–	KSCYSLGYYNPT (C-terminal amide)
binds	–	–	–	KAAYSLGYYNPT (C-terminal amide)
–	binds weakly	–	–	GYYNPTKAAYSL (5(6)-carboxyfluorescein (CF) on the N-terminus; C-terminal amide)
binds	–	binds	–	KSCYSLGYYNPT (5(6)-carboxyfluorescein (CF) on the N-terminus; C-terminal amide)
binds	–	–	binds	KAAYSLGYYNPT (5(6)-carboxyfluorescein (CF) on the N-terminus; C-terminal amide)
